The values below come from publication PMC7083938.

Test [1] concerns the target hRobo3 ectodomain (human) (UniProt Q96MS0). Briefly: SEC-MALS; Superose 6 Increase 10/300 in HBS (10 mM HEPES pH 7.2, 150 mM NaCl), Wyatt HELEOS II; both purified. On the technique in general: Size exclusion chromatography separates by hydrodynamic size, large species first.
For test [2] the target is unchanged. Briefly: SEC-SAXS; Superose 6 Increase 10/300 in HBS at APS BioCAT beamline 18; molecular weight from the scattering; both purified.
Test [3] deals with human Robo3 ectodomain (human) (UniProt Q96MS0). Briefly: SAXS; SEC-coupled SAXS, Superose 6 Increase 10/300 in HBS, APS beamline 18 (Bio-CAT); samples injected at 10–30 µM (hRobo3 ectodomain, hNELL2) or ~1 mg protein; molecular weight by the Vc method; both purified.
Test [4] has the same target. Briefly: SEC-MALS; Wyatt HELEOS II coupled to an AKTA FPLC, Superose Increase 6 10/300, HBS; Zimm model; both purified.
Test [5] concerns the target T1, mouse Robo3 ectodomain (mouse) (UniProt Q9Z2I4).
T1 sequence (chain, biotin (NHS-Biotin) where captured on the SA chip for SPR): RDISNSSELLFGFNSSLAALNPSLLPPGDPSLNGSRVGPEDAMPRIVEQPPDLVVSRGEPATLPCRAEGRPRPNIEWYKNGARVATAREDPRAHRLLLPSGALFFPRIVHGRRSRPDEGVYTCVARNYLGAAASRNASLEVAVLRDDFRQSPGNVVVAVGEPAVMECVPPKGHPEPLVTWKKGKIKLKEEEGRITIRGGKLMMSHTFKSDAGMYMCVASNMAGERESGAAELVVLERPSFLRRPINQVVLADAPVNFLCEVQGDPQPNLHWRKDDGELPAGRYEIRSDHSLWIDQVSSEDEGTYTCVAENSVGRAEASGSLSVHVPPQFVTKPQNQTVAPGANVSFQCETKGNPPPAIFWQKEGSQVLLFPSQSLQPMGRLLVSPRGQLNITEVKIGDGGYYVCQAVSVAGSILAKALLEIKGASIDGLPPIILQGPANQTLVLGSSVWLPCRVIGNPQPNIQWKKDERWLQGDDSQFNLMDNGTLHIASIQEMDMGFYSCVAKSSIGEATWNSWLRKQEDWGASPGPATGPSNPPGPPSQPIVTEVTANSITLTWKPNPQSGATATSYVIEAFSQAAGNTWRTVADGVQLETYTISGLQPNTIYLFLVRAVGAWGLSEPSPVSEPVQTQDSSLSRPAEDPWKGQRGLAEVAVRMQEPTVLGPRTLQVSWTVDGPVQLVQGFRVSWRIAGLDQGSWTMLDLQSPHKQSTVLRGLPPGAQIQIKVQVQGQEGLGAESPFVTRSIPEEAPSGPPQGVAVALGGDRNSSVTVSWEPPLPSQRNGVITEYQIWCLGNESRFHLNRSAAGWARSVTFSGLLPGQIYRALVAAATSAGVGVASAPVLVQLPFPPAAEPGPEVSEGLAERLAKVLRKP
Briefly: AUC; sedimentation velocity, 20 °C, c(s) analysis in SEDFIT; single concentration 2.5 µM mRobo1 and 1.8 µM mRobo3 at 200,000 g, and concentration series (mRobo3 up to 20 µM); both purified.

Test [6] concerns the target T1, mouse Robo3 ectodomain (mouse). Briefly: SEC; oligomeric state of single purified proteins by elution volume; HBS; both purified.

No constants are given. Whether binding was seen depends on the method and setting.

B1: hRobo3 ectodomain (domain or fragment, UniProt Q96MS0 21-891)
chain: GDISNSSELLLGFNSSLAALNHTLLPPGDPSLNGSRVGPEDAMPRIVEQPPDLLVSRGEPATLPCRAEGRPRPNIEWYKNGARVATVREDPRAHRLLLPSGALFFPRIVHGRRARPDEGVYTCVARNYLGAAASRNASLEVAVLRDDFRQSPGNVVVAVGEPAVLECVPPRGHPEPSVSWRKDGARLKEEEGRITIRGGKLMMSHTLKSDAGMYVCVASNMAGERESAAAEVMVLERPSFLRRPVNQVVLADAPVTFLCEVKGDPPPRLRWRKEDGELPTGRYEIRSDHSLWIGHVSAEDEGTYTCVAENSVGRAEASGSLSVHVPPQLVTQPQDQMAAPGESVAFQCETKGNPPPAIFWQKEGSQVLLFPSQSLQPTGRFSVSPRGQLNITAVQRGDAGYYVCQAVSVAGSILAKALLEIKGASLDGLPPVILQGPANQTLVLGSSVWLPCRVTGNPQPSVRWKKDGQWLQGDDLQFKTMANGTLYIANVQEMDMGFYSCVAKSSTGEATWSGWLKMREDWGVSPDPPTEPSSPPGAPSQPVVTEITKNSITLTWKPNPQTGAAVTSYVIEAFSPAAGNTWRTVADGVQLETHTVSGLQPNTIYLFLVRAVGAWGLSEPSPVSEPVRTQDSSPSRPVEDPWRGQQGLAEVAVRLQEPIVLGPRTLQVSWTVDGPVQLVQGFRVSWRVAGPEGGSWTMLDLQSPSQQSTVLRGLPPGTQIQIKVQAQGQEGLGAESLSVTRSIPEEAPSGPPQGVAVALGGDGNSSITVSWEPPLPSQQNGVITEYQIWCLGNESRFHLNRSAAGWARSAMLRGLVPGLLYRTLVAAATSAGVGVPSAPVLVQLPSPPDLEPGLEVGAGLAVRLARVLREP
B1: the binding result in test [1] and in test [2] was “no binding” in each case.

B2: human Robo3 ectodomain (domain or fragment, UniProt Q96MS0 21-891)
chain: GDISNSSELLLGFNSSLAALNHTLLPPGDPSLNGSRVGPEDAMPRIVEQPPDLLVSRGEPATLPCRAEGRPRPNIEWYKNGARVATVREDPRAHRLLLPSGALFFPRIVHGRRARPDEGVYTCVARNYLGAAASRNASLEVAVLRDDFRQSPGNVVVAVGEPAVLECVPPRGHPEPSVSWRKDGARLKEEEGRITIRGGKLMMSHTLKSDAGMYVCVASNMAGERESAAAEVMVLERPSFLRRPVNQVVLADAPVTFLCEVKGDPPPRLRWRKEDGELPTGRYEIRSDHSLWIGHVSAEDEGTYTCVAENSVGRAEASGSLSVHVPPQLVTQPQDQMAAPGESVAFQCETKGNPPPAIFWQKEGSQVLLFPSQSLQPTGRFSVSPRGQLNITAVQRGDAGYYVCQAVSVAGSILAKALLEIKGASLDGLPPVILQGPANQTLVLGSSVWLPCRVTGNPQPSVRWKKDGQWLQGDDLQFKTMANGTLYIANVQEMDMGFYSCVAKSSTGEATWSGWLKMREDWGVSPDPPTEPSSPPGAPSQPVVTEITKNSITLTWKPNPQTGAAVTSYVIEAFSPAAGNTWRTVADGVQLETHTVSGLQPNTIYLFLVRAVGAWGLSEPSPVSEPVRTQDSSPSRPVEDPWRGQQGLAEVAVRLQEPIVLGPRTLQVSWTVDGPVQLVQGFRVSWRVAGPEGGSWTMLDLQSPSQQSTVLRGLPPGTQIQIKVQAQGQEGLGAESLSVTRSIPEEAPSGPPQGVAVALGGDGNSSITVSWEPPLPSQQNGVITEYQIWCLGNESRFHLNRSAAGWARSAMLRGLVPGLLYRTLVAAATSAGVGVPSAPVLVQLPSPPDLEPGLEVGAGLAVRLARVLREP
B2: the values for the binding result in test [3] and in test [4] were “no binding (tested: injected at 10–30 µM)” and “no binding”, respectively.

B3: mouse Robo3 ectodomain (domain or fragment, UniProt Q9Z2I4 21-891)
chain: RDISNSSELLFGFNSSLAALNPSLLPPGDPSLNGSRVGPEDAMPRIVEQPPDLVVSRGEPATLPCRAEGRPRPNIEWYKNGARVATAREDPRAHRLLLPSGALFFPRIVHGRRSRPDEGVYTCVARNYLGAAASRNASLEVAVLRDDFRQSPGNVVVAVGEPAVMECVPPKGHPEPLVTWKKGKIKLKEEEGRITIRGGKLMMSHTFKSDAGMYMCVASNMAGERESGAAELVVLERPSFLRRPINQVVLADAPVNFLCEVQGDPQPNLHWRKDDGELPAGRYEIRSDHSLWIDQVSSEDEGTYTCVAENSVGRAEASGSLSVHVPPQFVTKPQNQTVAPGANVSFQCETKGNPPPAIFWQKEGSQVLLFPSQSLQPMGRLLVSPRGQLNITEVKIGDGGYYVCQAVSVAGSILAKALLEIKGASIDGLPPIILQGPANQTLVLGSSVWLPCRVIGNPQPNIQWKKDERWLQGDDSQFNLMDNGTLHIASIQEMDMGFYSCVAKSSIGEATWNSWLRKQEDWGASPGPATGPSNPPGPPSQPIVTEVTANSITLTWKPNPQSGATATSYVIEAFSQAAGNTWRTVADGVQLETYTISGLQPNTIYLFLVRAVGAWGLSEPSPVSEPVQTQDSSLSRPAEDPWKGQRGLAEVAVRMQEPTVLGPRTLQVSWTVDGPVQLVQGFRVSWRIAGLDQGSWTMLDLQSPHKQSTVLRGLPPGAQIQIKVQVQGQEGLGAESPFVTRSIPEEAPSGPPQGVAVALGGDRNSSVTVSWEPPLPSQRNGVITEYQIWCLGNESRFHLNRSAAGWARSVTFSGLLPGQIYRALVAAATSAGVGVASAPVLVQLPFPPAAEPGPEVSEGLAERLAKVLRKP
modifications: biotin (NHS-Biotin) where captured on the SA chip for SPR
Consider B3, for which the binding entry in test [5] is reported as “no binding (tested: 1.8 µM; concentration series up to 20 µM)”; in test [6], “no binding”.
